The target of the experiment is T1, GFP-tagged LNX1p80 (Ligand of Numb protein X1, p80 isoform) (mouse) (UniProt O70263).
T1 sequence: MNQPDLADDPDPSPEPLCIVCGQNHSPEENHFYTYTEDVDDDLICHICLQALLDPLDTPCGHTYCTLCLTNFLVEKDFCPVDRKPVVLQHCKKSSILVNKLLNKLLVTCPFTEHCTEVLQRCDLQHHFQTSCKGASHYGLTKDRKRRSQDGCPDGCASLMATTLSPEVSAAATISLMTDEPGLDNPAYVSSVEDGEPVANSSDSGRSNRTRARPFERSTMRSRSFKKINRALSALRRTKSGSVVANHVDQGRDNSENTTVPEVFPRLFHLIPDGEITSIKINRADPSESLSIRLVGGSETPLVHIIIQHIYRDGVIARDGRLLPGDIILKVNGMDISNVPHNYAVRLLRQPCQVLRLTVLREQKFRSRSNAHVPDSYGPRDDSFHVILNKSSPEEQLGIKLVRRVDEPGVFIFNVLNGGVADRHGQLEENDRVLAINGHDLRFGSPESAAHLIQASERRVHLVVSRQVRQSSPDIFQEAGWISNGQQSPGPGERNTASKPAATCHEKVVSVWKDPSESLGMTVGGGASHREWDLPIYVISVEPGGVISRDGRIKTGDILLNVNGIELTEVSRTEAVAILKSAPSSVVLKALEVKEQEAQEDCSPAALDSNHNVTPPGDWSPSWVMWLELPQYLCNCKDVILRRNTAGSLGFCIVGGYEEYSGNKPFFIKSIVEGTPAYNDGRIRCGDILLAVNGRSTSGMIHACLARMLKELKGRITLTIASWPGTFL
Kind of experiment: affinity purification with mass spectrometry; GFP-LNX1p80 complexes purified on magnetic GFP-Trap beads from stably transfected HEK 293 cells; gel slices, nano-LC MS/MS; proteins also found with GFP alone removed; Mascot protein score cut-off 70.

Sequences of proteins named here, by UniProt entry; tags and fusion partners are left off. A change or cut given only in a name is not applied to a line headed by its entry. A line that says so, or that is headed by a name, gives the form on record, which may keep a tag or linker.
UniProt Q8IUD2: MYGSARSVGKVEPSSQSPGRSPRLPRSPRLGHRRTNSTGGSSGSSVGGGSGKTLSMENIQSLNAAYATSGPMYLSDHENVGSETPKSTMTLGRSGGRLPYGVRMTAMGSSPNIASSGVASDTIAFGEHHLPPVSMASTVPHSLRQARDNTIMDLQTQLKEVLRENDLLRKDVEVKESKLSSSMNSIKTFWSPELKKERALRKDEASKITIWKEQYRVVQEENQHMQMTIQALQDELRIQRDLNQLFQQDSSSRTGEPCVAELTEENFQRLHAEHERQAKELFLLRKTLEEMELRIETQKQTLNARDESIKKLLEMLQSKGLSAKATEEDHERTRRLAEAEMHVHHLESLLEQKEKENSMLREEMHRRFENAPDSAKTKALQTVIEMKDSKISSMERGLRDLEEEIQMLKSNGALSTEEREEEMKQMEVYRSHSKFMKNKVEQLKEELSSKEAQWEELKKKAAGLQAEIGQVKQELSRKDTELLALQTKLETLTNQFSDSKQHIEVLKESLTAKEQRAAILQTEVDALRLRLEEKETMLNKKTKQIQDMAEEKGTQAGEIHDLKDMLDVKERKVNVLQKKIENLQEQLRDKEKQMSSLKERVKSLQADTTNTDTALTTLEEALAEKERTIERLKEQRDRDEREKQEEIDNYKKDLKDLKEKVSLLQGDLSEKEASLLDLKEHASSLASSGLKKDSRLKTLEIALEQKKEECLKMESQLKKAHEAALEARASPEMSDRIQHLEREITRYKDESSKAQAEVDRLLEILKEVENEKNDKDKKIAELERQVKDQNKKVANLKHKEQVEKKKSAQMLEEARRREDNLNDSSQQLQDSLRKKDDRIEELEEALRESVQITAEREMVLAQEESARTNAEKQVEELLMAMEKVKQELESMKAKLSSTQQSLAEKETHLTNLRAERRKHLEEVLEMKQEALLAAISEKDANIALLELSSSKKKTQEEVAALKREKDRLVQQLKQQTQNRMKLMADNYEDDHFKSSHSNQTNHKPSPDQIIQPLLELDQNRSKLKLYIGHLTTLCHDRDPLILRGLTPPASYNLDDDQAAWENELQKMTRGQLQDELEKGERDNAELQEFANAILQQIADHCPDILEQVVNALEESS
AP-2 complex subunit alpha-1, endogenous (O95782-2, form named): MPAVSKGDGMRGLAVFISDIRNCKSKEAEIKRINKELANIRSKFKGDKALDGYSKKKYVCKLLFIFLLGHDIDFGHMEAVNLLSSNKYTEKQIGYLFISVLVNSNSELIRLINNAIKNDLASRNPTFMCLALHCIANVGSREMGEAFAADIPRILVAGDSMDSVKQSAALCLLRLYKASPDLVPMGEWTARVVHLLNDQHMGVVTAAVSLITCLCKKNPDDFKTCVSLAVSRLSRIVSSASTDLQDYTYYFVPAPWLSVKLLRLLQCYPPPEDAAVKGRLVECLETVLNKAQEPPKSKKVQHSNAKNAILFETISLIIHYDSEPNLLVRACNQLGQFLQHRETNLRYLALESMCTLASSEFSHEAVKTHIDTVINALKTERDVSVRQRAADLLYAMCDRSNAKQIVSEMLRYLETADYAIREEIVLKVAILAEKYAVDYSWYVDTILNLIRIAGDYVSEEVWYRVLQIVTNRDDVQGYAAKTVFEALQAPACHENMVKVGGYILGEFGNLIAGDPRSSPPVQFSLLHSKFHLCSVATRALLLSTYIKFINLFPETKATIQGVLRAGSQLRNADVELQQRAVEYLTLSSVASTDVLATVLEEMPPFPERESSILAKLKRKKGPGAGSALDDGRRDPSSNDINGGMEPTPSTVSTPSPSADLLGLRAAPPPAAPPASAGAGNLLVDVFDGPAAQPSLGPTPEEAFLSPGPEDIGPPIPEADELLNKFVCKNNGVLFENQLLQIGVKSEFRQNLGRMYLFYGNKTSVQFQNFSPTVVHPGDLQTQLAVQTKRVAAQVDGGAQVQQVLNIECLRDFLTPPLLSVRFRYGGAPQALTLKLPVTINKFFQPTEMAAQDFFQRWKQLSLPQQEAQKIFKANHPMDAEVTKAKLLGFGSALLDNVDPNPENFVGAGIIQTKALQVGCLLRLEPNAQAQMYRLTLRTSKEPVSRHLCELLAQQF
UniProt P17028: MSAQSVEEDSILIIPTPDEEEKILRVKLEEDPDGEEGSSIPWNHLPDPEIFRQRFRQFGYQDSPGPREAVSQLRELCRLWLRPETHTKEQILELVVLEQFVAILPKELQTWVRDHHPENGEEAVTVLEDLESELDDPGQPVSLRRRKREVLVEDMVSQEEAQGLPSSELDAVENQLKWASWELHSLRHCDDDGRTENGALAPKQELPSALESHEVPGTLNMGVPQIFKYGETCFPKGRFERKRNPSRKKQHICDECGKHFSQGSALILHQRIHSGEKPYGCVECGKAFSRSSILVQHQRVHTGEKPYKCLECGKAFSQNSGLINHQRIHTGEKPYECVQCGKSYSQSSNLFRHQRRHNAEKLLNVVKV
UniProt Q9P2J5: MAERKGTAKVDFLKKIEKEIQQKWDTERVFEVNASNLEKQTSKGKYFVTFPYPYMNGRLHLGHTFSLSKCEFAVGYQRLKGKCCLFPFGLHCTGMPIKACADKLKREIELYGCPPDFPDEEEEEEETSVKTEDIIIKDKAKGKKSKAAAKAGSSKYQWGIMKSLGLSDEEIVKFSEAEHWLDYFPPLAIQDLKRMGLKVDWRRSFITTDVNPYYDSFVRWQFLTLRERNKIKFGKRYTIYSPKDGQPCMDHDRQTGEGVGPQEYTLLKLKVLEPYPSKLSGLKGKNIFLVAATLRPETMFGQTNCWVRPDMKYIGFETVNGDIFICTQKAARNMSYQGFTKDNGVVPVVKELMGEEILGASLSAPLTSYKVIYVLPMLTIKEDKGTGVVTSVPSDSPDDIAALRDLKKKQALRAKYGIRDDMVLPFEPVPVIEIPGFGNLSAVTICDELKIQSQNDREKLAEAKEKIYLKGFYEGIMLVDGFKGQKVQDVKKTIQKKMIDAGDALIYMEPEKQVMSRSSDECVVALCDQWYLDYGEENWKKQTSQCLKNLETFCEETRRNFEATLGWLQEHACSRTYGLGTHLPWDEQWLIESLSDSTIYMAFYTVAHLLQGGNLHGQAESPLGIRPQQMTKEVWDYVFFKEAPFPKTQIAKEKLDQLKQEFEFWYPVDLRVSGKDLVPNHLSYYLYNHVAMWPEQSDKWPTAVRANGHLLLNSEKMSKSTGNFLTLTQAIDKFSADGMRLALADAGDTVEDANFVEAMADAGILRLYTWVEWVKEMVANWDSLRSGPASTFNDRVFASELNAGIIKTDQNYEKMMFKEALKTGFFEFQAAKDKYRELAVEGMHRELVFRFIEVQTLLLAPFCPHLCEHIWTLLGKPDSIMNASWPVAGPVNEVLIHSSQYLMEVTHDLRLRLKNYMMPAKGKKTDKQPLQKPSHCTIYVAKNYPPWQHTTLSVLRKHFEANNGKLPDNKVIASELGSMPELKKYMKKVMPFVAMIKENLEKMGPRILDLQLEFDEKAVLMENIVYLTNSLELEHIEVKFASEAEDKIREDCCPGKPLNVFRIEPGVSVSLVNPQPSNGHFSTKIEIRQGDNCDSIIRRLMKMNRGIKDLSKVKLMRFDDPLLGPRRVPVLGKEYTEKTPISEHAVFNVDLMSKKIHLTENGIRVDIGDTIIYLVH
UniProt P46940: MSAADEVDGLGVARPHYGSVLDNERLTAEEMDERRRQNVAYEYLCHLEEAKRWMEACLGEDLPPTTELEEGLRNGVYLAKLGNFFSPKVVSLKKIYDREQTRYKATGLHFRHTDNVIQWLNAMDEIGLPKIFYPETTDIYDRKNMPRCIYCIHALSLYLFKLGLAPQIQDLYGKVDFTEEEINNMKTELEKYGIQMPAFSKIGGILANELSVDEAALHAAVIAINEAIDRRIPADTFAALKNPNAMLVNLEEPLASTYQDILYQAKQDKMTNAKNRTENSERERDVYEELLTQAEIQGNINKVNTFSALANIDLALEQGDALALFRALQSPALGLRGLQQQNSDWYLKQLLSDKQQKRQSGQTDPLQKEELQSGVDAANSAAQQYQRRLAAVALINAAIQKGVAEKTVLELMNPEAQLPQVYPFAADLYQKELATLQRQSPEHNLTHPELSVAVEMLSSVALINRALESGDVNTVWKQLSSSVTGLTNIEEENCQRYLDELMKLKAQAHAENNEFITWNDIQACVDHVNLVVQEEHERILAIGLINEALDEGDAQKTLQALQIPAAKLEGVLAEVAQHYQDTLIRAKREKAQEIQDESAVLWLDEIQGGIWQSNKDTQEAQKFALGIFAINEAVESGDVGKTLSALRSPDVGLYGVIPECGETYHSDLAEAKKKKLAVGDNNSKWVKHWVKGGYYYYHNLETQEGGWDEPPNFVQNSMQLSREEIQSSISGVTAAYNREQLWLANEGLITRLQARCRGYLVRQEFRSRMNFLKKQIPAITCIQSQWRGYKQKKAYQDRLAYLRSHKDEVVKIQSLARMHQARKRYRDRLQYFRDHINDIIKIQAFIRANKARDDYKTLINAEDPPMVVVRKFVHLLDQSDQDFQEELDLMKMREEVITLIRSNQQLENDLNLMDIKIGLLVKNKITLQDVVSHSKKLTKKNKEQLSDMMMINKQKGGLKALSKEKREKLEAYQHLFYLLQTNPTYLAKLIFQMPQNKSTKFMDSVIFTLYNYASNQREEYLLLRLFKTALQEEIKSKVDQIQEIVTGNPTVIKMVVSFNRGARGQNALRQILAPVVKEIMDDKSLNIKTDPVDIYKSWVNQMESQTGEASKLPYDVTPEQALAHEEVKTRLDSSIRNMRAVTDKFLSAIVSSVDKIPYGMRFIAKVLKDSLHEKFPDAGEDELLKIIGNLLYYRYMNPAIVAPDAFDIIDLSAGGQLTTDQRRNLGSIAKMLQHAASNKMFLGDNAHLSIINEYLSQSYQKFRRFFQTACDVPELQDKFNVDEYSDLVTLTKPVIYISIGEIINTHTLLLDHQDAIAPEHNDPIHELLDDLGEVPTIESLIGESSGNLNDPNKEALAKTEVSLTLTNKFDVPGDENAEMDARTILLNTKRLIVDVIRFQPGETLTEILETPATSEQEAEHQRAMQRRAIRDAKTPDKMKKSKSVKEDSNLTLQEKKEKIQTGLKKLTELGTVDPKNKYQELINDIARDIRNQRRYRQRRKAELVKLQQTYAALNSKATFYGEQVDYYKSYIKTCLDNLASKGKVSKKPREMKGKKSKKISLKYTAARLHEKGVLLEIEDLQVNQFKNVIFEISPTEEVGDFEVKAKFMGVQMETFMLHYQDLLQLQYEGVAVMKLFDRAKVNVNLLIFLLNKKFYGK
UniProt Q13136: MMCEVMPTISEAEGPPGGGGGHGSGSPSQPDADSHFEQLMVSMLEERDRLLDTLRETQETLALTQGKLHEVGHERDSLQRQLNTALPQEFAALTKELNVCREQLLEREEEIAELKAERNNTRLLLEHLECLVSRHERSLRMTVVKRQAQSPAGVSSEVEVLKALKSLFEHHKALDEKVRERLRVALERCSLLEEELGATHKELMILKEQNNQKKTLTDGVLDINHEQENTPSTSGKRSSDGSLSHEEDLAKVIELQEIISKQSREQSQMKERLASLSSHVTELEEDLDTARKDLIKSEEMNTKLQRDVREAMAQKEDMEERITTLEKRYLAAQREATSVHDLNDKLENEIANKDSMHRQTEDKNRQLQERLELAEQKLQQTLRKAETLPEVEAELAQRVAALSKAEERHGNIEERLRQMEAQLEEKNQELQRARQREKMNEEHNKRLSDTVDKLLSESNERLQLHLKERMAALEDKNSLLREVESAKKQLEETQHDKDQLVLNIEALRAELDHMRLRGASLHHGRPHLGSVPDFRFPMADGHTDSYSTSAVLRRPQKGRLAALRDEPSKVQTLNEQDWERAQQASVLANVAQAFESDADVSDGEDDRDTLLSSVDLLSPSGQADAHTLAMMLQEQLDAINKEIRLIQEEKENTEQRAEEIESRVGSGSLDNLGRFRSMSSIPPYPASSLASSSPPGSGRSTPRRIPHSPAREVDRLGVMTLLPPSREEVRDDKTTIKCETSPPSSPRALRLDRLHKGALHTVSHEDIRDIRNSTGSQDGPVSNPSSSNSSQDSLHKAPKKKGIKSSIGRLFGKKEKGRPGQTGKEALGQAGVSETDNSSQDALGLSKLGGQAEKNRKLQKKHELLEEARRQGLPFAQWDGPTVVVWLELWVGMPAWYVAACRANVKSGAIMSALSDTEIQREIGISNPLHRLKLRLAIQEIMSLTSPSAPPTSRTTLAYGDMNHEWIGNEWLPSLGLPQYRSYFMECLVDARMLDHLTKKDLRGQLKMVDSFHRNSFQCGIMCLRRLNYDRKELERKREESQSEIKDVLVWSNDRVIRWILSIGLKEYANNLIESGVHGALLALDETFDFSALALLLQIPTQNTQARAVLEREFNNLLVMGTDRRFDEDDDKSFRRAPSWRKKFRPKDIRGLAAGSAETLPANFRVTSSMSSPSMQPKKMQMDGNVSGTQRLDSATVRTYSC

Results are given in words; binding and its absence hold for the method and conditions named. Binding seen in cells or lysates may run through a third protein. A yes stands for co-enrichment or nearness to the bait. Other partners may have been found. Sequences can lack the tags named with a protein.

“TMED2, endogenous (from UniProt Q15363 21-201)”: the binding entry is given as “binds”.

For “A-kinase anchor protein 13, endogenous (human (endogenous in HEK 293))”, the binding entry was “binds”. With “SRGAP2, endogenous (from UniProt O75044 1-1071)”, the binding entry was “binds”. With “Probable ubiquitin carboxyl-terminal hydrolase FAF-X, endogenous (human (endogenous in HEK 293))”, the binding entry is “binds”. Turning to “Liprin-alpha-3, endogenous (from UniProt O75145 1-1194)”, the binding result is “binds”. Then “Zinc finger CCHC-type and RNA-binding motif-containing protein 1, endogenous (from UniProt Q8TBF4 1-217)”, with “binds”; and “Kinesin-like protein KIF14, endogenous (from UniProt Q15058 1-1648)”, with “binds”.

As for “ERC1, endogenous (from UniProt Q8IUD2 1-1116)”, the binding result is on record as “binds”. In the case of “Serine/threonine-protein phosphatase PP1-alpha catalytic subunit isoform 3, endogenous (human (endogenous in HEK 293))”, the binding result is listed as “binds”. On to “AP-2 complex subunit alpha-1, endogenous (from UniProt O95782-2 1-955)”, for which the binding result is “binds”. In the case of “Zinc finger protein 24, endogenous (from UniProt P17028 1-368)”, the binding entry is “binds”. Under “Leucyl-tRNA synthetase, cytoplasmic, endogenous (from UniProt Q9P2J5 1-1176)” stands “binds”; under “Ras GTPase-activating-like protein IQGAP1, endogenous (from UniProt P46940 1-1657)”, “binds”; under “Probable E3 ubiquitin-protein ligase MYCBP2, endogenous (from UniProt O75592 1-4678)”, “binds”.

As for “Liprin-alpha-1 (PPFIA1), endogenous (from UniProt Q13136 1-1202)”, the binding entry is recorded as “binds”.

“Chromodomain-helicase-DNA-binding protein 2, endogenous (human (endogenous in HEK 293))”: the binding result is “binds”. Turning to “AP-2 complex subunit mu, endogenous (from UniProt Q96CW1 1-435)”, the binding result is reported as “binds”.

B1: Dual specificity protein phosphatase 14, endogenous (protein, UniProt O95147 1-198)
chain: MSSRGHSTLPRTLMAPRMISEGDIGGIAQITSSLFLGRGSVASNRHLLQARGITCIVNATIEIPNFNWPQFEYVKVPLADMPHAPIGLYFDTVADKIHSVSRKHGATLVHCAAGVSRSATLCIAYLMKFHNVCLLEAYNWVKARRPVIRPNVGFWRQLIDYERQLFGKSTVKMVQTPYGIVPDVYEKESRHLMPYWGI
For the molecule B1, the binding result is listed as “binds”.

B2: Pleckstrin, endogenous (protein, UniProt P08567 1-350)
chain: MEPKRIREGYLVKKGSVFNTWKPMWVVLLEDGIEFYKKKSDNSPKGMIPLKGSTLTSPCQDFGKRMFVFKITTTKQQDHFFQAAFLEERDAWVRDIKKAIKCIEGGQKFARKSTRRSIRLPETIDLGALYLSMKDTEKGIKELNLEKDKKIFNHCFTGNCVIDWLVSNQSVRNRQEGLMIASSLLNEGYLQPAGDMSKSAVDGTAENPFLDNPDAFYYFPDSGFFCEENSSDDDVILKEEFRGVIIKQGCLLKQGHRRKNWKVRKFILREDPAYLHYYDPAGAEDPLGAIHLRGCVVTSVESNSNGRKSEEENLFEIITADEVHYFLQAATPKERTEWIRAIQMASRTGK
As for B2, the binding result is recorded as “binds”.

B3: Protein numb homolog, endogenous (protein, UniProt P49757 1-651)
chain: MNKLRQSFRRKKDVYVPEASRPHQWQTDEEGVRTGKCSFPVKYLGHVEVDESRGMHICEDAVKRLKAERKFFKGFFGKTGKKAVKAVLWVSADGLRVVDEKTKDLIVDQTIEKVSFCAPDRNFDRAFSYICRDGTTRRWICHCFMAVKDTGERLSHAVGCAFAACLERKQKREKECGVTATFDASRTTFTREGSFRVTTATEQAEREEIMKQMQDAKKAETDKIVVGSSVAPGNTAPSPSSPTSPTSDATTSLEMNNPHAIPRRHAPIEQLARQGSFRGFPALSQKMSPFKRQLSLRINELPSTMQRKTDFPIKNAVPEVEGEAESISSLCSQITNAFSTPEDPFSSAPMTKPVTVVAPQSPTFQANGTDSAFHVLAKPAHTALAPVAMPVRETNPWAHAPDAANKEIAATCSGTEWGQSSGAASPGLFQAGHRRTPSEADRWLEEVSKSVRAQQPQASAAPLQPVLQPPPPTAISQPASPFQGNAFLTSQPVPVGVVPALQPAFVPAQSYPVANGMPYPAPNVPVVGITPSQMVANVFGTAGHPQAAHPHQSPSLVRQQTFPHYEASSATTSPFFKPPAQHLNGSAAFNGVDDGRLASADRHTEVPTGTCPVDPFEAQWAALENKSKQRTNPSPTNPFSSDLQKTFEIEL
As to B3, the binding entry is “binds”.

B4: Peroxisome biogenesis factor 1, endogenous (protein, UniProt O43933 1-1283)
chain: MWGSDRLAGAGGGGAAVTVAFTNARDCFLHLPRRLVAQLHLLQNQAIEVVWSHQPAFLSWVEGRHFSDQGENVAEINRQVGQKLGLSNGGQVFLKPCSHVVSCQQVEVEPLSADDWEILELHAVSLEQHLLDQIRIVFPKAIFPVWVDQQTYIFIQIVALIPAASYGRLETDTKLLIQPKTRRAKENTFSKADAEYKKLHSYGRDQKGMMKELQTKQLQSNTVGITESNENESEIPVDSSSVASLWTMIGSIFSFQSEKKQETSWGLTEINAFKNMQSKVVPLDNIFRVCKSQPPSIYNASATSVFHKHCAIHVFPWDQEYFDVEPSFTVTYGKLVKLLSPKQQQSKTKQNVLSPEKEKQMSEPLDQKKIRSDHNEEDEKACVLQVVWNGLEELNNAIKYTKNVEVLHLGKVWIPDDLRKRLNIEMHAVVRITPVEVTPKIPRSLKLQPRENLPKDISEEDIKTVFYSWLQQSTTTMLPLVISEEEFIKLETKDGLKEFSLSIVHSWEKEKDKNIFLLSPNLLQKTTIQVLLDPMVKEENSEEIDFILPFLKLSSLGGVNSLGVSSLEHITHSLLGRPLSRQLMSLVAGLRNGALLLTGGKGSGKSTLAKAICKEAFDKLDAHVERVDCKALRGKRLENIQKTLEVAFSEAVWMQPSVVLLDDLDLIAGLPAVPEHEHSPDAVQSQRLAHALNDMIKEFISMGSLVALIATSQSQQSLHPLLVSAQGVHIFQCVQHIQPPNQEQRCEILCNVIKNKLDCDINKFTDLDLQHVAKETGGFVARDFTVLVDRAIHSRLSRQSISTREKLVLTTLDFQKALRGFLPASLRSVNLHKPRDLGWDKIGGLHEVRQILMDTIQLPAKYPELFANLPIRQRTGILLYGPPGTGKTLLAGVIARESRMNFISVKGPELLSKYIGASEQAVRDIFIRAQAAKPCILFFDEFESIAPRRGHDNTGVTDRVVNQLLTQLDGVEGLQGVYVLAATSRPDLIDPALLRPGRLDKCVYCPPPDQVSRLEILNVLSDSLPLADDVDLQHVASVTDSFTGADLKALLYNAQLEALHGMLLSSGLQDGSSSSDSDLSLSSMVFLNHSSGSDDSAGDGECGLDQSLVSLEMSEILPDESKFNMYRLYFGSSYESELGNGTSSDLSSQCLSAPSSMTQDLPGVPGKDQLFSQPPVLRTASQEGCQELTQEQRDQLRADISIIKGRYRSQSGEDESMNQPGPIKTRLAISQSHLMTALGHTRPSISEDDWKNFAELYESFQNPKRRKNQSGTMFRPGQKVTLA
Regarding B4, the binding entry was “binds”.

B5: Numb-like protein, endogenous (protein, UniProt Q9Y6R0 1-609)
chain: MSRSAAASGGPRRPERHLPPAPCGAPGPPETCRTEPDGAGTMNKLRQSLRRRKPAYVPEASRPHQWQADEDAVRKGTCSFPVRYLGHVEVEESRGMHVCEDAVKKLKAMGRKSVKSVLWVSADGLRVVDDKTKDLLVDQTIEKVSFCAPDRNLDKAFSYICRDGTTRRWICHCFLALKDSGERLSHAVGCAFAACLERKQRREKECGVTAAFDASRTSFAREGSFRLSGGGRPAEREAPDKKKAEAAAAPTVAPGPAQPGHVSPTPATTSPGEKGEAGTPVAAGTTAAAIPRRHAPLEQLVRQGSFRGFPALSQKNSPFKRQLSLRLNELPSTLQRRTDFQVKGTVPEMEPPGAGDSDSINALCTQISSSFASAGAPAPGPPPATTGTSAWGEPSVPPAAAFQPGHKRTPSEAERWLEEVSQVAKAQQQQQQQQQQQQQQQQQQQQAASVAPVPTMPPALQPFPAPVGPFDAAPAQVAVFLPPPHMQPPFVPAYPGLGYPPMPRVPVVGITPSQMVANAFCSAAQLQPQPATLLGKAGAFPPPAIPSAPGSQARPRPNGAPWPPEPAPAPAPELDPFEAQWAALEGKATVEKPSNPFSGDLQKTFEIEL
For the molecule B5, the binding result is given as “binds”.

B6: Transmembrane emp24 domain-containing protein 10, endogenous (protein, UniProt P49755 32-219)
chain: ISFHLPINSRKCLREEIHKDLLVTGAYEISDQSGGAGGLRSHLKITDSAGHILYSKEDATKGKFAFTTEDYDMFEVCFESKGTGRIPDQLVILDMKHGVEAKNYEEIAKVEKLKPLEVELRRLEDLSESIVNDFAYMKKREEEMRDTNESTNTRVLYFSIFSMFCLIGLATWQVFYLRRFFKAKKLIE
For the molecule B6, the binding result is on record as “binds”.

The record behind these values is article PMC5679597.
